# From the supplement of paper PMC7666118
# Amino acid sequences for entries named in this document (tags omitted). A change or cut given only in a name is not applied to a line headed by its entry.
# UniProt Q53HC5: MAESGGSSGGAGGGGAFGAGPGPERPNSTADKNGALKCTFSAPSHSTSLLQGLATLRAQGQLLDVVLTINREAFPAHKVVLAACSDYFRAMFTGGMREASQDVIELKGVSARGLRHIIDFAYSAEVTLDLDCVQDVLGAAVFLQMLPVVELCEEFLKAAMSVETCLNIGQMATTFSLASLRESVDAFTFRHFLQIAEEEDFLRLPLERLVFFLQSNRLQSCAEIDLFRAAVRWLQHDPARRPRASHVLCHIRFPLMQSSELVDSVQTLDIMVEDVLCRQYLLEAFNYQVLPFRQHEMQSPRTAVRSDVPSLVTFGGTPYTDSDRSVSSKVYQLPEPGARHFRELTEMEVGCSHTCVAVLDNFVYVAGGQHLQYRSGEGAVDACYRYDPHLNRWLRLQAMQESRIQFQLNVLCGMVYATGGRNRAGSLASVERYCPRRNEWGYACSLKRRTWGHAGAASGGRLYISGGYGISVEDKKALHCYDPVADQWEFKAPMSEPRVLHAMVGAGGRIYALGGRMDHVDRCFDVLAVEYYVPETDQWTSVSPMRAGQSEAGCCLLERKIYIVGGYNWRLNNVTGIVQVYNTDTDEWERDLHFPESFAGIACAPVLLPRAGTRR
# UniProt O43299: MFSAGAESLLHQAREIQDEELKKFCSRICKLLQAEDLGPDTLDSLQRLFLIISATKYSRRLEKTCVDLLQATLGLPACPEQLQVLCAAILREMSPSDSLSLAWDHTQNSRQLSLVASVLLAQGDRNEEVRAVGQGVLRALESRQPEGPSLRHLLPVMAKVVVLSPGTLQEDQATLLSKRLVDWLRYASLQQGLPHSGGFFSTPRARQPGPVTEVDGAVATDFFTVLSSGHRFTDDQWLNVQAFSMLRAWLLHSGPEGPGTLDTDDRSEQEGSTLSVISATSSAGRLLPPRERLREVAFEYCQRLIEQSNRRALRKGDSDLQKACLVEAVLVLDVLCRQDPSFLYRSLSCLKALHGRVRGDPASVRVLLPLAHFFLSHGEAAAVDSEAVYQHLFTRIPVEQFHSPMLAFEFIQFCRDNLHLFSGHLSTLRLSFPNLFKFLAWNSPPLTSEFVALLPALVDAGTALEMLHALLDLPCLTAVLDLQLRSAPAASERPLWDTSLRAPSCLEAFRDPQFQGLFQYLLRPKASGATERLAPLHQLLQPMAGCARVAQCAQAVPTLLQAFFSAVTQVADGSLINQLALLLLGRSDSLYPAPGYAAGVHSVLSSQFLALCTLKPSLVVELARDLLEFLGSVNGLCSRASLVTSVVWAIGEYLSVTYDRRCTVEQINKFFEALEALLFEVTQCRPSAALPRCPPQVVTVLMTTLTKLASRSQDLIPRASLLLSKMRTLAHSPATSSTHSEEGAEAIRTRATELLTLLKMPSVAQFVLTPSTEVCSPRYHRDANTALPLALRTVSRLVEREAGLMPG
# UniProt Q86U28: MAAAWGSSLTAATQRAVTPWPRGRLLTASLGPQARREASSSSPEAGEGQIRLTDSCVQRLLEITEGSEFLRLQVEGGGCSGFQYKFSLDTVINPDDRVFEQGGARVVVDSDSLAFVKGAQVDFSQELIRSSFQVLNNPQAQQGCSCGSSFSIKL
# UniProt Q9Y664: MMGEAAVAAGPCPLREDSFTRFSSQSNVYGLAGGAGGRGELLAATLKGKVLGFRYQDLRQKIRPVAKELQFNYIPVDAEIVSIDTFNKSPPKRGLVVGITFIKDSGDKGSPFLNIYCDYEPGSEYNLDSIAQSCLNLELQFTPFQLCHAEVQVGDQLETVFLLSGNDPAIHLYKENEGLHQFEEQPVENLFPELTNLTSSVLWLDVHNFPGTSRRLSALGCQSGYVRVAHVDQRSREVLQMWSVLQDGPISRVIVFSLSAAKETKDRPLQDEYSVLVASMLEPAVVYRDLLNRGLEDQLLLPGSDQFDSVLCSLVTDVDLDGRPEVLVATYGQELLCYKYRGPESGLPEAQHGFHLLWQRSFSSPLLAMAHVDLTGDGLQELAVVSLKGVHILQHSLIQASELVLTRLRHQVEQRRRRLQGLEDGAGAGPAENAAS
# UniProt O15397, whole entry: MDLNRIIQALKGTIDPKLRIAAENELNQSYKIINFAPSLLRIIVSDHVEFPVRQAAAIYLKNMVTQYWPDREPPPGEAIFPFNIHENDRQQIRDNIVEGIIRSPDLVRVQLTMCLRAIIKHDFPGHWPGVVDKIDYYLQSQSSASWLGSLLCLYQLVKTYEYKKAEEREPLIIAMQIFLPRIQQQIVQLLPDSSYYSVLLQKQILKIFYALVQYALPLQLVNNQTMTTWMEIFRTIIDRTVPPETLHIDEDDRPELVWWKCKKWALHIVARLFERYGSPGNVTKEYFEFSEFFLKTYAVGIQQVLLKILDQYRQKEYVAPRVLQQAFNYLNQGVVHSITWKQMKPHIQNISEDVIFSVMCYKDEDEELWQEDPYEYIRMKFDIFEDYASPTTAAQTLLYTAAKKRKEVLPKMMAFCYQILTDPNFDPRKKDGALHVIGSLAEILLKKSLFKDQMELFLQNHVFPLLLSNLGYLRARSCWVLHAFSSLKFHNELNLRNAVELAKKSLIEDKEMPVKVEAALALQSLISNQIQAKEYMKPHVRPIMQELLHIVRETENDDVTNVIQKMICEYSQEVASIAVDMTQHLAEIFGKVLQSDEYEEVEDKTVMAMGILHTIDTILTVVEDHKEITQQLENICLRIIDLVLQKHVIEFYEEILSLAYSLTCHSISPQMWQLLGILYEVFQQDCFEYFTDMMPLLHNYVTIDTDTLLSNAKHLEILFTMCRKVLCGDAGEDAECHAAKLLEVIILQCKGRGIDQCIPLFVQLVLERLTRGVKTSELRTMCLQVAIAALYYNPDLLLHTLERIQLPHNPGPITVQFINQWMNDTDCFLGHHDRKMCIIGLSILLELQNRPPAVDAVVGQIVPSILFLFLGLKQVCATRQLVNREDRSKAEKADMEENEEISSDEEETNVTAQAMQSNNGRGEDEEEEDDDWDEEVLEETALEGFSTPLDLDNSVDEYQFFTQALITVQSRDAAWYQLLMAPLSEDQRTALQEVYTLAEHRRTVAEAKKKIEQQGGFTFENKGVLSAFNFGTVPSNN
# UniProt Q9P2D0: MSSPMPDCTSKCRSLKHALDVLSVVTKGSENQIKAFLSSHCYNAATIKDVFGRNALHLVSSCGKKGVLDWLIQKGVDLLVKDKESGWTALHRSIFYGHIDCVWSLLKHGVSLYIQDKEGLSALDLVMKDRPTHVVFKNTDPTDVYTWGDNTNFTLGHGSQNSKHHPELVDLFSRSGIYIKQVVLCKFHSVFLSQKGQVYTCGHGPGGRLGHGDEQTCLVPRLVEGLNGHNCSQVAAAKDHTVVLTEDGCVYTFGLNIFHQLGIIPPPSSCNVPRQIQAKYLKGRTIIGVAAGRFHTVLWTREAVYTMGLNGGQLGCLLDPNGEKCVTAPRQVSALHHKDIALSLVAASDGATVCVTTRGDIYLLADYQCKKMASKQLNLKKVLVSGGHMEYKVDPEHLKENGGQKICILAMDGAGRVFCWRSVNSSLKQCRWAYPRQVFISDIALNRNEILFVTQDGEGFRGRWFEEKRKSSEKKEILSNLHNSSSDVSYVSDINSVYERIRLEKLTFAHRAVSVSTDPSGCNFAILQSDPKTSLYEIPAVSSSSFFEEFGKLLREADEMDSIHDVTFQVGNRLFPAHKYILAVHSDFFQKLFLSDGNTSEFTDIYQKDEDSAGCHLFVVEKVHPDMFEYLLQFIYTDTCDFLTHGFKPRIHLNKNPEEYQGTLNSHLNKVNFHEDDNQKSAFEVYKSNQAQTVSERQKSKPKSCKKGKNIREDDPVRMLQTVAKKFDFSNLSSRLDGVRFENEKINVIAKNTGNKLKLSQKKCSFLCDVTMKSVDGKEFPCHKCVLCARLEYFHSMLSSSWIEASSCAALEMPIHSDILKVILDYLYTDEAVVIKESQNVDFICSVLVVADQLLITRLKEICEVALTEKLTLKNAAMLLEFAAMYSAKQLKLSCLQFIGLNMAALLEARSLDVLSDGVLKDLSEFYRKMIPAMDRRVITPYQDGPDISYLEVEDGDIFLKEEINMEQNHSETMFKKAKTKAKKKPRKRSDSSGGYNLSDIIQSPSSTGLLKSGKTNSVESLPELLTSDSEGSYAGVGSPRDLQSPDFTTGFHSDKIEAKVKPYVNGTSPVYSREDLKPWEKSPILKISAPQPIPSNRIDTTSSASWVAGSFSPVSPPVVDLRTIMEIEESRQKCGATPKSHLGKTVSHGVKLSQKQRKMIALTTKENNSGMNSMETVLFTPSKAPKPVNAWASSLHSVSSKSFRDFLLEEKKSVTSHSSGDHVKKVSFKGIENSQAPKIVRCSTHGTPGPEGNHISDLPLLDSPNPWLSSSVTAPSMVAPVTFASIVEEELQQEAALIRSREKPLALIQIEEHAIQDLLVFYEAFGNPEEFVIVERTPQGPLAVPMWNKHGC
# UniProt O94819: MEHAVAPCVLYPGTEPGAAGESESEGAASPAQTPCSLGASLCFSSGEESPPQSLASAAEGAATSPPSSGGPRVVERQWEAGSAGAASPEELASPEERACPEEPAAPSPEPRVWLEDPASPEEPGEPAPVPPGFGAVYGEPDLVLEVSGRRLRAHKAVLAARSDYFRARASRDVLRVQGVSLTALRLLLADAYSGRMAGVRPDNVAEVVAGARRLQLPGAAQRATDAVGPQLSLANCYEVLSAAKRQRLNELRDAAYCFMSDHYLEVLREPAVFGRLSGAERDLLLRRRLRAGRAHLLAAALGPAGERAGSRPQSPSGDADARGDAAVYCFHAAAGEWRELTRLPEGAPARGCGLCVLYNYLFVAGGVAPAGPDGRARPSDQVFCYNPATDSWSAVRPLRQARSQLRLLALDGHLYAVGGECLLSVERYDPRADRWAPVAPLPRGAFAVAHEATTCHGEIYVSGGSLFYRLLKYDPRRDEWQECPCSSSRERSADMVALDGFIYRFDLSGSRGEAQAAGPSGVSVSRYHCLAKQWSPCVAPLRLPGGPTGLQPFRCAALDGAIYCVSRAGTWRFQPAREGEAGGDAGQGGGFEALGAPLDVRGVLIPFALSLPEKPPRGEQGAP
# UniProt P78504, whole entry: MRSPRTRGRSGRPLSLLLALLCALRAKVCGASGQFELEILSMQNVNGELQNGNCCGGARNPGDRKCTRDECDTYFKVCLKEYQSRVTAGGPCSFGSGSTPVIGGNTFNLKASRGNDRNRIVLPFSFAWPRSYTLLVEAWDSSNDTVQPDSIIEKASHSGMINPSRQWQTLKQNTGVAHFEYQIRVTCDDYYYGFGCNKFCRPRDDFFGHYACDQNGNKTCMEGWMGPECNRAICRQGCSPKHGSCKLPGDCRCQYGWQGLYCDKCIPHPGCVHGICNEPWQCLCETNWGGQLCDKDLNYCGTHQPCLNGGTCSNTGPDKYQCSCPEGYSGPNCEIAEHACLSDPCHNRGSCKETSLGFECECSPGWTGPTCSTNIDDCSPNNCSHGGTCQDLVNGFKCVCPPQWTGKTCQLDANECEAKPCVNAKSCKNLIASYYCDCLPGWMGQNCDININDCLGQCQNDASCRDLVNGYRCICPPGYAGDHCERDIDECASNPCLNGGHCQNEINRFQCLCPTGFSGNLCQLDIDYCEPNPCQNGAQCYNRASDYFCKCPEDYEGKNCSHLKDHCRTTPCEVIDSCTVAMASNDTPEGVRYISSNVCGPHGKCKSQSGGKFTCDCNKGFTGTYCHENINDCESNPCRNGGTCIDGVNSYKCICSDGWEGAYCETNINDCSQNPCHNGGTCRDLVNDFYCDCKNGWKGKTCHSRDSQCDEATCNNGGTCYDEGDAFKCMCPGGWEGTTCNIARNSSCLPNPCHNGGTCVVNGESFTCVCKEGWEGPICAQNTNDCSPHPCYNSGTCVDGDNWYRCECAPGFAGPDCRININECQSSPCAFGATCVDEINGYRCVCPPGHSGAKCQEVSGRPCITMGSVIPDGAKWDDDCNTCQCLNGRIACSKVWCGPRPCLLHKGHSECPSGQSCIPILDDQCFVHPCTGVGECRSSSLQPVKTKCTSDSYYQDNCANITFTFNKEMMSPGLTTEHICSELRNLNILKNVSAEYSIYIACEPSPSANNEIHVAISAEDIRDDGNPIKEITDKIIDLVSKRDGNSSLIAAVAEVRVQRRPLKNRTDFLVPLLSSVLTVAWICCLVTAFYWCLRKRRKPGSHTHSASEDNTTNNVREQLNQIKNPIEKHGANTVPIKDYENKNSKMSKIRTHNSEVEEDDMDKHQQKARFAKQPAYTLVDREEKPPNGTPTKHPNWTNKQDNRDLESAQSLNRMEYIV
# UniProt Q96G21: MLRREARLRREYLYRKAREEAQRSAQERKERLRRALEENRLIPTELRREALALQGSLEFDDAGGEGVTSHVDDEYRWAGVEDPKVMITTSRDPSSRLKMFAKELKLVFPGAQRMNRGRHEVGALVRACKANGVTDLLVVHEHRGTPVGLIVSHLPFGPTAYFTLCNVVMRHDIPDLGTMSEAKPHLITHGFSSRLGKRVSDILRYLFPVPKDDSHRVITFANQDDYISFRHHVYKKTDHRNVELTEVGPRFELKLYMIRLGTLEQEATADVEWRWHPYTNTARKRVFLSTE
# The other results are listed elsewhere or left out.
# Compound: COc1ccc(Cn2ccc3cc(C)c(C(=O)NO)cc32)cc1
# Assay: dose-dependent thermal stabilisation call (2D-TPP, DLPTP, 10% FDR) (binary (1 = stabilised)); higher = stabilised by the compound
# Conditions: system: HL-60 intact cells; concentration range 0.04-10 µM
# Experimental: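 2D thermal proteome profiling in intact HL-60 cells treated with BRD-3811 (0, 0.04, 0.29, 2, 10 uM) for 90 min at 37 C, then heated 3 min at one of 12 temperatures (42-63.9 C). Soluble protein was quantified by TMT10 MS. The value is the DLPTP call of the paper: dose-dependent thermal stabilisation over all temperatures at 10% FDR (F-test of a dose-response against a flat model); one experiment, one call per tested protein.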
row,Target,dose-dependent thermal stabilisation call
1,KLHL26 (UniProt Q53HC5),inactive: 0
2,IFNGR1 (UniProt P15260),inactive: 0
3,HTRA2 (UniProt O43464),inactive: 0
4,KIAA0415 (UniProt O43299),inactive: 0
5,IL17RA (UniProt Q96F46),inactive: 0
6,KIAA1609 (UniProt Q6P9B6),inactive: 0
7,IKZF2 (UniProt Q9UKS7),inactive: 0
8,INPP4A (UniProt Q96PE3),inactive: 0
9,IGSF10 (UniProt Q6WRI0),inactive: 0
10,KIAA0494 (UniProt O75071),inactive: 0
11,IGLL1 (UniProt P15814),inactive: 0
12,IRF2BP1 (UniProt Q8IU81),inactive: 0
13,ISCA2 (UniProt Q86U28),inactive: 0
14,ITCH (UniProt Q96J02),inactive: 0
15,KPTN (UniProt Q9Y664),inactive: 0
16,KIAA0746 (UniProt Q68CR1),inactive: 0
17,KHDRBS1 (UniProt Q07666),inactive: 0
18,IER3IP1 (UniProt Q9Y5U9),inactive: 0

# Taken from the entries so far for reference:
row,Target,dose-dependent thermal stabilisation call
8,INPP4A (UniProt Q96PE3),inactive: 0
9,IGSF10 (UniProt Q6WRI0),inactive: 0
10,KIAA0494 (UniProt O75071),inactive: 0

# (list continues)

row,Target,dose-dependent thermal stabilisation call
1,INPP5B (UniProt P32019),inactive: 0
2,IPO8 (UniProt O15397),inactive: 0
3,JMJD1C (UniProt Q15652),inactive: 0
4,KIAA0090 (UniProt Q8N766),inactive: 0
5,IARS (UniProt P41252),inactive: 0
6,IBTK (UniProt Q9P2D0),inactive: 0
7,KBTBD11 (UniProt O94819),inactive: 0
8,HTATIP2 (UniProt Q9BUP3),inactive: 0
9,JAG1 (UniProt P78504),inactive: 0
10,IPO11 (UniProt Q9UI26),inactive: 0
11,KLHL12 (UniProt Q53G59),inactive: 0
12,KLF16 (UniProt Q9BXK1),inactive: 0
13,IRF2 (UniProt P14316),inactive: 0
14,KIAA1274 (UniProt Q9ULE6),inactive: 0
15,IFRD2 (UniProt Q12894),inactive: 0
16,KPNA2 (UniProt P52292),inactive: 0
17,IMP4 (UniProt Q96G21),inactive: 0
18,IKBKB (UniProt O14920),inactive: 0
